Laboratory results: article PMC5454318
Results are given in words; binding and its absence hold for the method and conditions named. For part of these data: Binding seen in cells or lysates may run through a third protein. Some binding calls cover weakened binding; strength is not graded here. One block for each substance: values may come before it.

Chains of the proteins cited; added tags and fusions are not shown. Lines headed by an entry give the natural chain unless they say otherwise; changes in a name come on top.
UniProt Q9UPU5: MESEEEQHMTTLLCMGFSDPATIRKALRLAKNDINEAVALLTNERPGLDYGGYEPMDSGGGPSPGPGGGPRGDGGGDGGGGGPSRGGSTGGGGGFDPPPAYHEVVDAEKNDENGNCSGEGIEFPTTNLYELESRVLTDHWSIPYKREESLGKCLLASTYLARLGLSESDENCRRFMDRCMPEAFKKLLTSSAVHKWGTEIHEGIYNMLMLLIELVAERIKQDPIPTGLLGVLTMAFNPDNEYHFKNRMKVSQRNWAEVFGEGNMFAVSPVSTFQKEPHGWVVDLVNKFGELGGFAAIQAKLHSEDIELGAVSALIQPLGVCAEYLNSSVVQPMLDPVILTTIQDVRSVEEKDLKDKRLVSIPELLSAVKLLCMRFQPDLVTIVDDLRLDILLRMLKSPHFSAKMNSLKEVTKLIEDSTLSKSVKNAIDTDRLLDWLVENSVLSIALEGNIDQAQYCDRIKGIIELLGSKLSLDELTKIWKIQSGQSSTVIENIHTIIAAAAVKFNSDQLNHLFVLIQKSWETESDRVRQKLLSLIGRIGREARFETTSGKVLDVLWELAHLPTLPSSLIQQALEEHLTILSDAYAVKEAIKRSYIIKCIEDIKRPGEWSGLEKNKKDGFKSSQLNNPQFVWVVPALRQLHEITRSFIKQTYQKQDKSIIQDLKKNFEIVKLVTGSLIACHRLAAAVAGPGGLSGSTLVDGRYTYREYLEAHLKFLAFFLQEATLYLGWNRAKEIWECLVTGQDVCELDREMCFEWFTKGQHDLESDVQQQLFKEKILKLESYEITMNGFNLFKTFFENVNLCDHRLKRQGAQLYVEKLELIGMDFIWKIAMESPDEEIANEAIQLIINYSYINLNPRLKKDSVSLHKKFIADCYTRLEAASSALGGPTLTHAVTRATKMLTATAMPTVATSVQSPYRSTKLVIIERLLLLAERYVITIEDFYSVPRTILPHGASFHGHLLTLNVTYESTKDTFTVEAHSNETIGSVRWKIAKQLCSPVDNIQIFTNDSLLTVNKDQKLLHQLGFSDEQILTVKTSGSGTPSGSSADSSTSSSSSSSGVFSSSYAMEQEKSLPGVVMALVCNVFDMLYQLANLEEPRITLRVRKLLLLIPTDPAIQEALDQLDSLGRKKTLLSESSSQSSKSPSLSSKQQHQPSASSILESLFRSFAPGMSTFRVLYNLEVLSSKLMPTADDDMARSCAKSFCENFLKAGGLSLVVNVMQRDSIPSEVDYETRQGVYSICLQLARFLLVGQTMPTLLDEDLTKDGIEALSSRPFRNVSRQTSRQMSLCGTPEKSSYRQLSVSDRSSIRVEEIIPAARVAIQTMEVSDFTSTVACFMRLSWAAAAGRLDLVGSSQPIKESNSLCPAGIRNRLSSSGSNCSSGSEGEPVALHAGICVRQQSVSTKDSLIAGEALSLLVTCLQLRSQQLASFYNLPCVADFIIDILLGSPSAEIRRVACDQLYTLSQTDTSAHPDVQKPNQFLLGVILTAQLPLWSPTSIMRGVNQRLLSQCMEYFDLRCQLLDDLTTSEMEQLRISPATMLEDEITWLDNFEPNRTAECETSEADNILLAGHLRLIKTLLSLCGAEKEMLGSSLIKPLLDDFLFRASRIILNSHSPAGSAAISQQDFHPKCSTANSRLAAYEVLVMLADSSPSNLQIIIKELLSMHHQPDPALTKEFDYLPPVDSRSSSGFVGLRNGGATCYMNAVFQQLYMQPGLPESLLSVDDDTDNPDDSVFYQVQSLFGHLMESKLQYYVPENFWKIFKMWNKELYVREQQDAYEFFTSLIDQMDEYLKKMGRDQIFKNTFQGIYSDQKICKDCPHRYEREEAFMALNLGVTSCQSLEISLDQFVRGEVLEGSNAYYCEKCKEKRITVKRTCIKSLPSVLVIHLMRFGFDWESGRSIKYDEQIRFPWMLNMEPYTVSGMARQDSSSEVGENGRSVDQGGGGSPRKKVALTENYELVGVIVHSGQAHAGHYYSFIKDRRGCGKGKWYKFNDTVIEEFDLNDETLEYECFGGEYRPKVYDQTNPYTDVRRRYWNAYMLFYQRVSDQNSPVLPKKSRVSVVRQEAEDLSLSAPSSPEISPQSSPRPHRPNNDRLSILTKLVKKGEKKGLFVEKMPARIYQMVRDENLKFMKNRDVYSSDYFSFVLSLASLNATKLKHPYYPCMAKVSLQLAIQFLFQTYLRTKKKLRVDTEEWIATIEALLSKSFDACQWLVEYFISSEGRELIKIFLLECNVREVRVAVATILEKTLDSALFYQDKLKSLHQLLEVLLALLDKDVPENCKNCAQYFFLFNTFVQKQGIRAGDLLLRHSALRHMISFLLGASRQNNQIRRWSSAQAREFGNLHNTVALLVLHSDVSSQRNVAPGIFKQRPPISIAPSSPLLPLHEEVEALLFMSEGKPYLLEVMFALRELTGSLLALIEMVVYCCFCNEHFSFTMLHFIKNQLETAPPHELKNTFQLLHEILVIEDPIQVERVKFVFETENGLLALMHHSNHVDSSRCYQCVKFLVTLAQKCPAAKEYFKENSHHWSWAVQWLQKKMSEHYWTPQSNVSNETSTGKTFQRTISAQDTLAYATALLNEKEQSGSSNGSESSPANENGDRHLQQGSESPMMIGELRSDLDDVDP
UniProt Q07812: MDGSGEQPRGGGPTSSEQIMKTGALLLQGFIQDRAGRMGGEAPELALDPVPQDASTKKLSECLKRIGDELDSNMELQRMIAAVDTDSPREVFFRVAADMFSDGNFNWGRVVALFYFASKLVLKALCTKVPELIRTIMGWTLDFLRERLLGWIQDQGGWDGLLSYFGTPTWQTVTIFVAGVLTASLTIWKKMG
UniProt P12956: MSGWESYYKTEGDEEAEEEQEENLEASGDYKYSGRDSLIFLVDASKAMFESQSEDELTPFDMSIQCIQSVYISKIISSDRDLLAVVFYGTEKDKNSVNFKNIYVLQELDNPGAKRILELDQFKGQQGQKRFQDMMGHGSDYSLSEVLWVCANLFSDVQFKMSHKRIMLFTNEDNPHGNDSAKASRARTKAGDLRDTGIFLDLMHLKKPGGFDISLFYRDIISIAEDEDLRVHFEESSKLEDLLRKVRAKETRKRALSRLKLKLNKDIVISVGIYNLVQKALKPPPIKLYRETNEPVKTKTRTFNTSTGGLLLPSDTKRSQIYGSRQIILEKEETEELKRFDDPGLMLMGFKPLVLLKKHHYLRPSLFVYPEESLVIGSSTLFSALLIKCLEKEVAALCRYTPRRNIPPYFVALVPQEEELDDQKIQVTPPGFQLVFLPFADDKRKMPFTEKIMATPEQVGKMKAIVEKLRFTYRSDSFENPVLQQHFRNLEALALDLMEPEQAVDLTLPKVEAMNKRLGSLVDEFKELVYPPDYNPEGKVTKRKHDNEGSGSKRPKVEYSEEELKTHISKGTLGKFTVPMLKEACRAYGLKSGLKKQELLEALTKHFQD
UniProt Q12834: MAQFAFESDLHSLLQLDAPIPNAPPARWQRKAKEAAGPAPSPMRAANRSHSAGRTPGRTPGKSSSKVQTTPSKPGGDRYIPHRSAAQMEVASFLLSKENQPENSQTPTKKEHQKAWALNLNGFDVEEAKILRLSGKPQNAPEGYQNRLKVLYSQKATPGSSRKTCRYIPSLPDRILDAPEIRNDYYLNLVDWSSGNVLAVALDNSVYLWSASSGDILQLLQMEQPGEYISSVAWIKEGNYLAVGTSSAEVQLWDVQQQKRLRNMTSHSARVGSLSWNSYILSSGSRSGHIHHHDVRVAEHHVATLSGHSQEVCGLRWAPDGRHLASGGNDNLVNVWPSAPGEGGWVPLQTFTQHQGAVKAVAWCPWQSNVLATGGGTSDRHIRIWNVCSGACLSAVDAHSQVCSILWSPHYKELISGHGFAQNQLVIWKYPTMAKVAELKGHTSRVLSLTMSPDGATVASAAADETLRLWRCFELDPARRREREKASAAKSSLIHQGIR
UniProt Q16254: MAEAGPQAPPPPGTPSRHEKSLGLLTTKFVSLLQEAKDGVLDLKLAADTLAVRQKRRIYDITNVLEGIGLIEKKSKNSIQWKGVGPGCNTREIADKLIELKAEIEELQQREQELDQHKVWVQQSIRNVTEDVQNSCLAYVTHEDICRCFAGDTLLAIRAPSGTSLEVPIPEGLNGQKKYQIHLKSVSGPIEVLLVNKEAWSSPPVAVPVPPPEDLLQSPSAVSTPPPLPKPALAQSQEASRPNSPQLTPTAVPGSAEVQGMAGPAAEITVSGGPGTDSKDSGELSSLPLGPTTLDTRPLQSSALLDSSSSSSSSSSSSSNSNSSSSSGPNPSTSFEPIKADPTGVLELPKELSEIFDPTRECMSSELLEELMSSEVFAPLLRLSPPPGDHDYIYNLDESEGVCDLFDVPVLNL
UniProt P27361: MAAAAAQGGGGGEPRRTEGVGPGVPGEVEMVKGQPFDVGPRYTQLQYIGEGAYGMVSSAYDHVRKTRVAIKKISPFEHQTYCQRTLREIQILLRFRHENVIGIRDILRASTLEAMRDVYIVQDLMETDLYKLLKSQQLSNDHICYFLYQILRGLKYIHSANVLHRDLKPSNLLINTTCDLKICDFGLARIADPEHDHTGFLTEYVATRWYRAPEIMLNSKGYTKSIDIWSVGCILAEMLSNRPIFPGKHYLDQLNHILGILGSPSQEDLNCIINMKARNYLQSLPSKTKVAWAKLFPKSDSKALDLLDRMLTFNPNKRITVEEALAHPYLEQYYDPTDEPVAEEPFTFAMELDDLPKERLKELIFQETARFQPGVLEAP
UniProt P28482: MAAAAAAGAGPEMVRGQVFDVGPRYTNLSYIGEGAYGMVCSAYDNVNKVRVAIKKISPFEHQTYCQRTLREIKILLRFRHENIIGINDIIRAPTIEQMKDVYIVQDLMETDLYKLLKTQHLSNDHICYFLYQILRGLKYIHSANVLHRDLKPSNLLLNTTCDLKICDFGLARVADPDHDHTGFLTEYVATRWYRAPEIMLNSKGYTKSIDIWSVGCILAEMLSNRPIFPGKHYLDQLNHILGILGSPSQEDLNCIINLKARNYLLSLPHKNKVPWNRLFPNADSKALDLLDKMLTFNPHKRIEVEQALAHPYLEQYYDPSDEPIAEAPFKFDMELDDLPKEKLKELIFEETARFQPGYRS
UniProt P06493: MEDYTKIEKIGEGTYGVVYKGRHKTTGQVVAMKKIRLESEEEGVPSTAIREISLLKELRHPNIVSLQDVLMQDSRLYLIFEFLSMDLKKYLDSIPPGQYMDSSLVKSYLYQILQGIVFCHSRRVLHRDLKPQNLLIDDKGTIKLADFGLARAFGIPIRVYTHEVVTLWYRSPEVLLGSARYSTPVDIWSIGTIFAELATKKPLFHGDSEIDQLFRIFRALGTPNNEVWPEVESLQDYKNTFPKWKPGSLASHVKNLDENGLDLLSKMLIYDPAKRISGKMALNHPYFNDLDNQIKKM

What was measured:
[1] = target: ubiquitin-specific peptidase 24 (human (endogenous in H1299, A549, U2OS, HeLa)) (UniProt Q9UPU5); assay: co-IP; A549 and U2OS cells, endogenous proteins; immunoprecipitation with anti-USP24 antibody, western blotting
[2] = target: USP24 (yeast two-hybrid fusion) (UniProt Q9UPU5); assay: two-hybrid; yeast two-hybrid assay of Ku70 and USP24, including truncated domains of each
[3] = target: Bax (human (endogenous in H1299)) (UniProt Q07812); assay: co-IP; H1299 cells, endogenous proteins; immunoprecipitation with anti-USP24 and with anti-Bax antibodies, western blotting
[4] = target: T1, securin (human (endogenous in HeLa)) (UniProt O95997); assay: co-IP; cells treated with nocodazole, immunoprecipitation with anti-securin; HeLa cells with or without nocodazole, immunoprecipitation with anti-USP24 antibody; western blotting
T1 sequence: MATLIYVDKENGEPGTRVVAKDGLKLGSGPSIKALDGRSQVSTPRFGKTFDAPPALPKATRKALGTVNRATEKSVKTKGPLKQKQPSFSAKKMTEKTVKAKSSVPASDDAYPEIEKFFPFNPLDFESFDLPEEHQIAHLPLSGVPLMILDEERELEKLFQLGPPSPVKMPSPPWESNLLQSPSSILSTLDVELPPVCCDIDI

[5] = target: Ku70 (human (endogenous in A549, U2OS)) (UniProt P12956); assay: co-IP; A549 cells, endogenous proteins; immunoprecipitation with anti-Ku70 antibody, western blotting
[6] = target: cdc20 (human (endogenous in A549)) (UniProt Q12834); assay: co-IP; A549 cells treated with nocodazole; immunoprecipitation with anti-CDC20, western blotting
[7] = target: ubiquitin-specific peptidase 24 (human (endogenous in H1299, A549, U2OS, HeLa)) (UniProt Q9UPU5); assay: co-IP; H1299 cells, endogenous proteins; immunoprecipitation with anti-USP24 and anti-ERK antibodies, western blotting with anti-USP24, anti-Erk and anti-p-Erk
[8] = target: ubiquitin-specific peptidase 24 (human (endogenous in H1299, A549, U2OS, HeLa)) (UniProt Q9UPU5); assay: co-IP; A549 cells in interphase and in mitosis; immunoprecipitation with anti-USP24 antibody, western blotting for USP24, CDK1, cyclin B1 and actin
[9] = target: Ku70 (human (endogenous in A549, U2OS)) (UniProt P12956); assay: co-IP; U2OS cells overexpressing HA-p300; immunoprecipitation with a Ku70 antibody, western blotting
[10] = target: ubiquitin-specific peptidase 24 (human (endogenous in H1299, A549, U2OS, HeLa)) (UniProt Q9UPU5); assay: co-IP; U2OS cells overexpressing HA-p300; immunoprecipitation with a USP24 antibody, western blotting
[11] = target: ubiquitin-specific peptidase 24 (human (endogenous in H1299, A549, U2OS, HeLa)) (UniProt Q9UPU5); assay: co-IP; A549 cells with or without HA-Ku70 expression; immunoprecipitation with anti-USP24 antibody, western blotting

binding [1]: binds
Substance: E2F4 (from UniProt Q16254 1-413)

binding [2]: binds
Substance: Ku70 (yeast two-hybrid fusion) (from UniProt P12956 1-609)

binding [3]: binds
binding [4]: binds
binding [5]: binds
binding [6]: binds
Substance: ubiquitin-specific peptidase 24 (from UniProt Q9UPU5 1-2620) (enzyme)

binding [7]: binds
Substance: p-Erk1 (from UniProt P27361 1-379) (enzyme)

binding [7]: binds
Substance: p-Erk2 (from UniProt P28482 1-360) (enzyme)

binding [8]: binds
Substance: CDK1/cyclin B (from UniProt P06493 1-297; P14635 1-433) (complex)

binding [7]: binds
Substance: Erk2 (from UniProt P28482 1-360) (enzyme)

binding [6]: binds
Substance: USP24 phosphorylated at Ser1616, Ser2047 and Ser2604 (from UniProt Q9UPU5 1-2620) (enzyme)

binding [9]: binds
binding [10]: binds
Substance: HA-p300 (from UniProt Q09472 1-2414) (enzyme)

binding [7]: binds
Substance: Erk1 (from UniProt P27361 1-379) (enzyme)

binding [11]: binds
Substance: HA-Ku70 (from UniProt P12956 1-609)
